Experimental data taken from patent US8552018B2, “Substituted tricyclic compounds as protein kinase inhibitors” (Arizona Board of Regents on behalf of the University of …, priority 2003, dated 2013).

Experiments:
Format in all cases: cell-based
LNCaP prostate cells = experiment: MTT assay; settings: Homo sapiens, read-out: IC50 (cell survival reduced to 50% of vehicle-treated controls), FIG. 30
Method: An MTT assay was performed to determine the number of viable cells in each well for each concentration of compound, and also for a set of vehicle controls (DMSO).

[1] = tested on: pancreatic cancer cell lines MIAPaCa-2 and PANC-1; experiment: Cancer cell cytotoxicity assay, range over both pancreatic lines; settings: potency order
Method: (§1) To validate the hypothesis that the designed c-kit/PDGFR tyrosine kinase inhibitors mediate GIST882 cell killing and PDGFR-mediated cell killing of pancreatic cancer cell lines (CFPAC-1, PANC-1 and MIA PaCa-2), an in vitro cytotoxicity assay was performed. The GIST882 cell line used in this study has a c-kit gain-of-function mutation (K642E). The assay utilized the Cell Titer 965 Non-Radioactive Cell Proliferation Assay (Promega Corp., Madison, Wis.). First the cells were cultured. GIST882 cells were provided by Dr. Jonathan A. Fletcher (Dana-Farber Cancer Institute, Boston, Mass.). PANC-1 and MIAPaCa-2 cells were provided by Dr. Daniel Von Hoff (Arizona Cancer Center, Tucson, Ariz.). […]
(§2) Cells were plated at a density of 2000 to 10000 cells per well, depending on their growth rate, in 0.1 mL medium on day 0 in 96-well Falcon microtiter plates (#3072, Becton-Dickinson Labware, Lincoln Park, N.J.). […] The absorbance of each well was read on a plate reader (Wallac Vector^2, PerkinElmer) at the wavelength of 570 nm. Data were expressed as the percentage of survival of control calculated from the absorbance corrected for background absorbance. The surviving percent of cells was determined by dividing the mean absorbance values of the […] by the mean absorbance values of the control and multiplying by 100.

GIST882 cell line = experiment: Cancer cell cytotoxicity assay (sulforhodamine B); settings: Homo sapiens, 96 h; GIST882, 4 days; read-out: IC50 c-kit GIST882
Method: as §1, §2

## Cc1ccc(NC(=O)c2ccc(CN3CCN(C)CC3)cc2)cc1Nc1nccc(-c2cccnc2)n1 [STI571, reference compound]
LNCaP prostate cells
  IC50: > 10 µM
[1]
  IC50: 20 to 24 µM
GIST882 cell line
  IC50: 0.1 µM
